± gives the standard deviation of the averaged measurements. The list shows a part of the results.
Compound: Nc1nc2c(ncn2[C@@H]2O[C@H](COP(=O)(O)OP(=O)(O)OP(=O)(O)O)[C@@H](O)[C@H]2O)c(=O)[nH]1 [guanosine triphosphate]
Experiment: NP40-soluble protein abundance relative to vehicle (solubility fold change) (ratio); higher = more soluble protein in presence of GTP
Outline: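 Jurkat crude lysate (Dounce-homogenised) was treated with eight concentrations from 0.1 to 10 mM for 10 min at room temperature, then 3 min at 37 °C. It was solubilised with 0.8% NP40 and benzonase (60 min, 4 °C) and ultracentrifuged, and the supernatant was TMT-labelled for LC-MS/MS. Intensities were vsn-normalised, and the value is the fold change against the NP40-processed vehicle per replicate, from three independent experiments.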

Protein sequences, listed by entry. Tags and fused reporters are not part of them. Lines headed by an entry give the natural chain unless they say otherwise; changes in a name come on top.
UniProt Q96AX1: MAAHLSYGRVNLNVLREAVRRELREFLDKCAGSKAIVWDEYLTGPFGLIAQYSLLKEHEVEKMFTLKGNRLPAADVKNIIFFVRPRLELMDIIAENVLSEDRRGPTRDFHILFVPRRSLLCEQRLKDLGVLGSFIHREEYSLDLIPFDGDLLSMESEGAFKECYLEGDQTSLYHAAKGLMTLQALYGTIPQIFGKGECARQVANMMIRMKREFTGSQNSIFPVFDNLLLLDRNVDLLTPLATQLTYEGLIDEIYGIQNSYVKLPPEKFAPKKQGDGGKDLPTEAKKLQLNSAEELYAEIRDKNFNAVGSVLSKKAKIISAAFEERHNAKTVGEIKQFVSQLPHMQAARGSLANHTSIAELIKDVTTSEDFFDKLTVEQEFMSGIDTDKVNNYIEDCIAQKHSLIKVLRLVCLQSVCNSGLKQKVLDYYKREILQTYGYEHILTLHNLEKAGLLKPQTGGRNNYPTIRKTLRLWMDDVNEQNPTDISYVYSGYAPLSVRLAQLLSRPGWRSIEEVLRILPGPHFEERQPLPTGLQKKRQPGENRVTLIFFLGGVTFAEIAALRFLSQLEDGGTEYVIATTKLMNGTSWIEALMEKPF
UniProt Q15287: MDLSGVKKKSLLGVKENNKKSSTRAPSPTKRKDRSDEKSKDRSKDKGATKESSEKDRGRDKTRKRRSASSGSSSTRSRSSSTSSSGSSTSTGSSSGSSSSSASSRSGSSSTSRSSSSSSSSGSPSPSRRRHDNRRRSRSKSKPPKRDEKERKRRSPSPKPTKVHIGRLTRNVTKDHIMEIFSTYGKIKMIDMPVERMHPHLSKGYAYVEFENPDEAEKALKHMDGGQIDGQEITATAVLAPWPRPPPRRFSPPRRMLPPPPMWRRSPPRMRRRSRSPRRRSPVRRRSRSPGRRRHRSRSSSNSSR
UniProt Q13838, whole entry: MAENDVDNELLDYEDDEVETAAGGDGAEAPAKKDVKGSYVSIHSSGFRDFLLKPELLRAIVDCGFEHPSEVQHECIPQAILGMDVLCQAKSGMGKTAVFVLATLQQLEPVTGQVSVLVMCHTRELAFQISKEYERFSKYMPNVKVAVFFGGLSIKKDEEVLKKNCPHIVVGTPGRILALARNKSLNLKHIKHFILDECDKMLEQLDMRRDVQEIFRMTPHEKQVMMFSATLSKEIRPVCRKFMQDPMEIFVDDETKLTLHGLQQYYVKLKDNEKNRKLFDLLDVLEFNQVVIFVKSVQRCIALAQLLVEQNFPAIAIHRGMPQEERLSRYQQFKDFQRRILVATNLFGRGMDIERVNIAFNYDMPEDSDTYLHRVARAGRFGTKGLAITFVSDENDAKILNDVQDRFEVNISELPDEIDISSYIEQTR
UniProt Q7L2E3: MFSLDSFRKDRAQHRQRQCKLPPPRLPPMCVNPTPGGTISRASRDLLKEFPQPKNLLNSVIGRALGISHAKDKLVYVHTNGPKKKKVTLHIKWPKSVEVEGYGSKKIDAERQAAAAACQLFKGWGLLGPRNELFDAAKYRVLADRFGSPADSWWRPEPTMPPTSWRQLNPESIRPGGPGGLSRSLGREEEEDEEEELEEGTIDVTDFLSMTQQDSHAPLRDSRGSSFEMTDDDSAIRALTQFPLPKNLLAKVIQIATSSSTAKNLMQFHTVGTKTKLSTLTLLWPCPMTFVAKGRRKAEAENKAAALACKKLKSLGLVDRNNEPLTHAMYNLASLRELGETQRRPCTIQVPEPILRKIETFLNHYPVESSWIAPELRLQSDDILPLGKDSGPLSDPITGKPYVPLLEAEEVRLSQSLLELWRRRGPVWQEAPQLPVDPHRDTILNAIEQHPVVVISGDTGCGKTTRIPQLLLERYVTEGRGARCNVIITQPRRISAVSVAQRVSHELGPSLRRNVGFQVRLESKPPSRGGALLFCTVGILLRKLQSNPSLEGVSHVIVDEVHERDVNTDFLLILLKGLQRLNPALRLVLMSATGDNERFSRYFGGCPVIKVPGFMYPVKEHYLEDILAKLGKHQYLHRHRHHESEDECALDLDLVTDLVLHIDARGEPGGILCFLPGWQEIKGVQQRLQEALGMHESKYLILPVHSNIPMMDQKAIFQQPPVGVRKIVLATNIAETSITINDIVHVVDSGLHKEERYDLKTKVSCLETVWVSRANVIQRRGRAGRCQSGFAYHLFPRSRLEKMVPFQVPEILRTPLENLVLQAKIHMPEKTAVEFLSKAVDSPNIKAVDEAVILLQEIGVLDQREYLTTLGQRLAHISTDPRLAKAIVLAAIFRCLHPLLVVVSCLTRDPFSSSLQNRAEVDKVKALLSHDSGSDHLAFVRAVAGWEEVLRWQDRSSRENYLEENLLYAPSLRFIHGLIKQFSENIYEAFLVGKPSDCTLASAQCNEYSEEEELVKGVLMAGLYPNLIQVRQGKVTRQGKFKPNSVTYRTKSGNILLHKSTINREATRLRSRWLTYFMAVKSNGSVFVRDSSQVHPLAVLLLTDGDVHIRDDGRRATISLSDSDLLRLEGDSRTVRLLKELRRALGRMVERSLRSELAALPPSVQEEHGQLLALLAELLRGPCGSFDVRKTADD
UniProt Q8WWM7: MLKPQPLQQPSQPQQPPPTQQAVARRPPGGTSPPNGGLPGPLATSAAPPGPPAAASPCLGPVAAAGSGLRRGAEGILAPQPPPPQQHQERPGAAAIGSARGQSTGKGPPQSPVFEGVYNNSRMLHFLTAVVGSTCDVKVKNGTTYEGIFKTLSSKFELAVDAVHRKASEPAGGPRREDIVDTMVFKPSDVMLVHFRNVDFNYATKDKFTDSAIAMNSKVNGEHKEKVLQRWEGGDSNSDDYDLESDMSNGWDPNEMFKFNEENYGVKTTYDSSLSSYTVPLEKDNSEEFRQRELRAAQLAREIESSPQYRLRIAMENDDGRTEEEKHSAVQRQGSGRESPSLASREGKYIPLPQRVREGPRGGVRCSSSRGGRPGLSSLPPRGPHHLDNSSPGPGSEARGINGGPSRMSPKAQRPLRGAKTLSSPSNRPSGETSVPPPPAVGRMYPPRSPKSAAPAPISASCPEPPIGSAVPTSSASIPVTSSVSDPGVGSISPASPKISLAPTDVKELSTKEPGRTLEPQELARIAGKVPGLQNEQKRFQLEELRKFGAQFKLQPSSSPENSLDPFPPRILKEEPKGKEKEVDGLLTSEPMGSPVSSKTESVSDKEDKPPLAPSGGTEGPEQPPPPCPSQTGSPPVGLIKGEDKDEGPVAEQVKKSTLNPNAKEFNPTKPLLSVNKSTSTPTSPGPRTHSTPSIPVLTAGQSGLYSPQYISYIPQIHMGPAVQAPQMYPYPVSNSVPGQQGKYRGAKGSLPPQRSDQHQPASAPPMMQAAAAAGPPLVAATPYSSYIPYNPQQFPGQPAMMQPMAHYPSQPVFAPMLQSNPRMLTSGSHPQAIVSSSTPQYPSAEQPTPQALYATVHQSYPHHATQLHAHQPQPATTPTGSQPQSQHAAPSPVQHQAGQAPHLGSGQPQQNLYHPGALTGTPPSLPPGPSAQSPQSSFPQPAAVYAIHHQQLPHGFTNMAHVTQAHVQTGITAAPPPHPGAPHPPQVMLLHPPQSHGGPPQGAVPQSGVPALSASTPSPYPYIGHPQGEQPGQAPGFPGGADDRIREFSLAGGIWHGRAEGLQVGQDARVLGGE
UniProt O95707: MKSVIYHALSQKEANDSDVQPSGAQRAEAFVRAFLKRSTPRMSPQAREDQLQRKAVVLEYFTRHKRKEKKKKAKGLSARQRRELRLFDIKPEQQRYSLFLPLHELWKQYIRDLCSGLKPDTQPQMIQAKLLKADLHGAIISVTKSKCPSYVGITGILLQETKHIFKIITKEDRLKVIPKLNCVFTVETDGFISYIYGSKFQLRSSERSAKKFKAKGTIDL
UniProt Q14498: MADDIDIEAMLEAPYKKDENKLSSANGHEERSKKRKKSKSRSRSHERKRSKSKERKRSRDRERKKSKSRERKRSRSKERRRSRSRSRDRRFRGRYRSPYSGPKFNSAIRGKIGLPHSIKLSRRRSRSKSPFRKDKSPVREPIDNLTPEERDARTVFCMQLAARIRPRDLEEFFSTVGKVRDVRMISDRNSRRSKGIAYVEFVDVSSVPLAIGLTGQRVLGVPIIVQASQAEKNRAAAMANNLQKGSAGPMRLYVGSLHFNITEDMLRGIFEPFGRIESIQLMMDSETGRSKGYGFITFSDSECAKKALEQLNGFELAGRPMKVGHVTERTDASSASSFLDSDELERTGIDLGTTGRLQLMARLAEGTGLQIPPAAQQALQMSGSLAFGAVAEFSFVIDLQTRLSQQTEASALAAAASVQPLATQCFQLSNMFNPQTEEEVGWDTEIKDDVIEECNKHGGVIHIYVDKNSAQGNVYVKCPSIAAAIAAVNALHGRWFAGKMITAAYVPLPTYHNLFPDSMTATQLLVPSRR
UniProt Q6P2D0: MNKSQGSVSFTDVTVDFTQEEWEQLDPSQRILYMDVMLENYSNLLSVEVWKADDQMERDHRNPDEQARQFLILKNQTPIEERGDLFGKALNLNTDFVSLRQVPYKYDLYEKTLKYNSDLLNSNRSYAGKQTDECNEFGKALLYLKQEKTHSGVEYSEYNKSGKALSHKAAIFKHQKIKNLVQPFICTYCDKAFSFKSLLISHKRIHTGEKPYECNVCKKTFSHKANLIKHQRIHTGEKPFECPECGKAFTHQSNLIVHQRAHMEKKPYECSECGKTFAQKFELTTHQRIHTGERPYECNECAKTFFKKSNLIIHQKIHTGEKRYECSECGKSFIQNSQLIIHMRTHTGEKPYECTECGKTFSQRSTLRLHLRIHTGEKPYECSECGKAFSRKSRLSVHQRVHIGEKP
UniProt H0UI80: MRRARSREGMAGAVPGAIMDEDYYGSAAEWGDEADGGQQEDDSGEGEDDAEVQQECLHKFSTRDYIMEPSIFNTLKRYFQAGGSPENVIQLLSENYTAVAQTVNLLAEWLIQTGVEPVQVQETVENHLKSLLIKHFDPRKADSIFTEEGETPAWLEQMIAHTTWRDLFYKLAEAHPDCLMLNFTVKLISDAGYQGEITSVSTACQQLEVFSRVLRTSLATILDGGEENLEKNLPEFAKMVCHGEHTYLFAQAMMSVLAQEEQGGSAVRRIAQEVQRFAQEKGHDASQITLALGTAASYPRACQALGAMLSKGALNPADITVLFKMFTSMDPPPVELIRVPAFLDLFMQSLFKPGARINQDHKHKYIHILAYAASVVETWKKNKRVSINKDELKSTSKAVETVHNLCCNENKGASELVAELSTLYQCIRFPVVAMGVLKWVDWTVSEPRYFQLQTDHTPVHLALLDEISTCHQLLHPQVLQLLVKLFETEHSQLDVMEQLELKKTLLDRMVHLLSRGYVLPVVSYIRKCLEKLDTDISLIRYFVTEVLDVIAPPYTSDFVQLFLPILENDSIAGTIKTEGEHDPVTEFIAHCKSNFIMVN
UniProt Q8IXH7, whole entry, looked up: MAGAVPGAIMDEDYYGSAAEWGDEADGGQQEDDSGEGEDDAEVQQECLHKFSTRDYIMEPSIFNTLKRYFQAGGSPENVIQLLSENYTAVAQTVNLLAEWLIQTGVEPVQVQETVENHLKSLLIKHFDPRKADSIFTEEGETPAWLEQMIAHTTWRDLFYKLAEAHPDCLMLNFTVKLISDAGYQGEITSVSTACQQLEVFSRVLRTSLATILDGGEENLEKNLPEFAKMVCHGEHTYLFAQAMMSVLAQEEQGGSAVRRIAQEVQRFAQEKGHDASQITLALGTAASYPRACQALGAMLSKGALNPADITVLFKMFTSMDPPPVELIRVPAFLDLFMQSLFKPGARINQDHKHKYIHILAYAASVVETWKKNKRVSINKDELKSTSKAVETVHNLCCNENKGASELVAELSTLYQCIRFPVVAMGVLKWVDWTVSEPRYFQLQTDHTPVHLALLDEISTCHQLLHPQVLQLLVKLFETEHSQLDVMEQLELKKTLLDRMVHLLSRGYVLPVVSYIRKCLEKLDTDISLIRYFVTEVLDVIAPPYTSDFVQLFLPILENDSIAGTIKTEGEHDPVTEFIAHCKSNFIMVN
UniProt P12829: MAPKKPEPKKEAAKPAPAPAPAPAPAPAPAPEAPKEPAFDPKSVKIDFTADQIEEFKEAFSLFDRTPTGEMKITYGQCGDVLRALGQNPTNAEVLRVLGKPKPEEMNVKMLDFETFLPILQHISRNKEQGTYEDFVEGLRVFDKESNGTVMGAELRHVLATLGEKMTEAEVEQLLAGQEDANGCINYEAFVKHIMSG
UniProt Q99933: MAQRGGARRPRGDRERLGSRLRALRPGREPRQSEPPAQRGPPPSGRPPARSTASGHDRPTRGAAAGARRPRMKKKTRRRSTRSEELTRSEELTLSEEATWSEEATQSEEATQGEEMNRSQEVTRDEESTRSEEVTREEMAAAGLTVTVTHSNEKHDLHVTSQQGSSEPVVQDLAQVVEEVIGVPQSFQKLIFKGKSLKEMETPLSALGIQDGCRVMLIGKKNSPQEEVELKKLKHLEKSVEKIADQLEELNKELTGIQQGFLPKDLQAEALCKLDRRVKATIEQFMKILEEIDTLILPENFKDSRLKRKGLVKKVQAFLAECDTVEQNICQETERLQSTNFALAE

Target | NP40-soluble protein abundance (concentration: 0.1mM) | NP40-soluble protein abundance (concentration: 0.5mM) | NP40-soluble protein abundance (concentration: 1mM) | NP40-soluble protein abundance (concentration: 2mM) | NP40-soluble protein abundance (concentration: 4mM) | NP40-soluble protein abundance (concentration: 6mM) | NP40-soluble protein abundance (concentration: 8mM) | NP40-soluble protein abundance (concentration: 10mM)
I3L3N5 and related entries (UniProt P43034) | 0.977 ± 0.014 | 0.987 ± 0.054 | 0.91 ± 0.018 | 0.921 ± 0.023 | 0.915 ± 0.0099 | 0.9 ± 0.03 | 0.909 ± 0.044 | 0.885 ± 0.027
J3KPS0 and related entries (UniProt Q9NXW2) | 1.01 ± 0.065 | 0.995 ± 0.088 | 0.984 ± 0.083 | 0.935 ± 0.064 | 0.913 ± 0.066 | 0.918 ± 0.1 | 0.967 ± 0.082 | 0.925 ± 0.063
H3BMM5 and related entries (UniProt Q96AX1+H3BMM5) | 1.14 ± 0.2 | 1.15 ± 0.22 | 1.01 ± 0.16 | 1.1 ± 0.2 | 1.07 ± 0.16 | 0.998 ± 0.08 | 0.968 ± 0.14 | 0.907 ± 0.14
H3BMM9 and related entries (UniProt Q15287) | 0.958 ± 0.09 | 1.19 ± 0.048 | 1.29 ± 0.14 | 1.32 ± 0.27 | 1.2 ± 0.42 | 1.12 ± 0.34 | 0.972 ± 0.3 | 1.09 ± 0.43
H0Y400 and related entries (UniProt Q13838) | 1.01 ± 0.031 | 0.983 ± 0.04 | 0.884 ± 0.056 | 0.923 ± 0.082 | 0.949 ± 0.076 | 0.977 ± 0.064 | 0.954 ± 0.08 | 0.954 ± 0.091
K7ENL9 and related entries (UniProt Q96DM3) | 1.05 ± 0.053 | 1.07 ± 0.046 | 0.982 ± 0.032 | 0.989 ± 0.096 | 0.985 ± 0.036 | 0.968 ± 0.048 | 0.961 ± 0.072 | 0.948 ± 0.072
J9JID7 and related entries (UniProt Q03252) | 0.974 ± 0.042 | 0.998 ± 0.045 | 1.01 ± 0.064 | 0.984 ± 0.087 | 0.908 ± 0.063 | 0.93 ± 0.066 | 0.923 ± 0.035 | 0.941 ± 0.045
H0YCG1 and related entries (UniProt Q13435) | 0.998 ± 0.046 | 1.05 ± 0.034 | 1.11 ± 0.046 | 1.08 ± 0.058 | 1.12 ± 0.087 | 1.08 ± 0.14 | 1.22 ± 0.12 | 1.18 ± 0.15
J3KNF5 and related entries (UniProt O15078) | 1 ± 0.039 | 0.935 ± 0.07 | 0.918 ± 0.063 | 0.893 ± 0.051 | 0.885 ± 0.043 | 0.918 ± 0.063 | 0.892 ± 0.1 | 0.867 ± 0.069
H0YM11 and related entries (UniProt Q9Y448) | 0.9956 ± 0.0083 | 0.92 ± 0.072 | 1.03 ± 0.055 | 0.987 ± 0.056 | 0.979 ± 0.072 | 1.04 ± 0.069 | 1.05 ± 0.031 | 1.14 ± 0.05
K7EKE6 and related entries (UniProt P36776) | 1.04 ± 0.029 | 1.03 ± 0.046 | 0.963 ± 0.045 | 0.945 ± 0.059 | 0.953 ± 0.048 | 0.928 ± 0.054 | 0.916 ± 0.031 | 0.871 ± 0.058
H7BXY3 and related entries (UniProt Q7L2E3) | 0.909 ± 0.068 | 0.793 ± 0.053 | 0.83 ± 0.048 | 0.877 ± 0.037 | 0.948 ± 0.059 | 1.02 ± 0.075 | 1.011 ± 0.008 | 1.12 ± 0.048
H3BUF6 and related entries (UniProt Q8WWM7) | 0.945 ± 0.054 | 0.952 ± 0.075 | 0.974 ± 0.067 | 0.954 ± 0.099 | 0.963 ± 0.07 | 0.975 ± 0.077 | 1.02 ± 0.052 | 1.04 ± 0.066
K7ELL7 and related entries (UniProt P14314) | 0.9 ± 0.096 | 0.919 ± 0.11 | 0.942 ± 0.11 | 0.888 ± 0.12 | 0.891 ± 0.11 | 0.899 ± 0.095 | 0.92 ± 0.11 | 0.936 ± 0.12
K7EQV2 and related entries (UniProt O95707) | 1.06 ± 0.04 | 1.11 ± 0.087 | 1.05 ± 0.12 | 1.04 ± 0.074 | 1.06 ± 0.13 | 1.15 ± 0.18 | 1.15 ± 0.11 | 1.13 ± 0.16
H3BNA5 and related entries (UniProt Q9NZC3) | 0.999 ± 0.024 | 0.959 ± 0.028 | 0.958 ± 0.035 | 0.961 ± 0.026 | 0.944 ± 0.054 | 0.913 ± 0.045 | 0.905 ± 0.067 | 0.897 ± 0.059
H0Y4X3 and related entries (UniProt Q14498) | 1.02 ± 0.049 | 1.2 ± 0.029 | 1.28 ± 0.046 | 1.36 ± 0.076 | 1.44 ± 0.13 | 1.48 ± 0.11 | 1.56 ± 0.15 | 1.6 ± 0.14
K7ERQ0 and related entries (UniProt Q5BJH7) | 1.05 ± 0.24 | 1.08 ± 0.037 | 1.02 ± 0.15 | 1.03 ± 0.022 | 1.08 ± 0.1 | 0.9931 ± 0.0031 | 0.915 ± 0.025 | 0.968 ± 0.11
J3KNQ1 and related entries (UniProt Q6P2D0) | 1.03 ± 0.077 | 0.991 ± 0.13 | 0.955 ± 0.022 | 1.01 ± 0.097 | 0.943 ± 0.057 | 0.943 ± 0.075 | 0.942 ± 0.082 | 1.03 ± 0.037
K7EK07 and related entries (UniProt P84243+K7EK07) | 0.857 ± 0.015 | 0.815 ± 0.042 | 0.9735 ± 0.0013 | 0.966 ± 0.03 | 1.03 ± 0.022 | 1.08 ± 0.054 | 1.06 ± 0.042 | 1.27 ± 0.059
H0Y4W2 and related entries (UniProt Q9Y4A5) | 1.066 ± 0.0081 | 1.07 ± 0.11 | 1.07 ± 0.096 | 1.15 ± 0.17 | 1.25 ± 0.25 | 1.16 ± 0.21 | 1.19 ± 0.15 | 1.15 ± 0.12
H0UI80 and related entries (UniProt X6RLT1+Q8IXH7+H0UI80) | 1.01 ± 0.017 | 0.973 ± 0.038 | 0.965 ± 0.024 | 0.968 ± 0.012 | 0.981 ± 0.011 | 0.978 ± 0.01 | 0.97 ± 0.039 | 0.95 ± 0.0096
I3L1K6 and related entries (UniProt P12829) | 1.03 ± 0.088 | 0.956 ± 0.1 | 1.11 ± 0.12 | 1.15 ± 0.058 | 1.14 ± 0.11 | 1.11 ± 0.11 | 1.02 ± 0.13 | 1.14 ± 0.046
H0YJ21 and related entries (UniProt Q14204) | 1.1 ± 0.088 | 1.16 ± 0.15 | 1.07 ± 0.14 | 1.15 ± 0.22 | 1.17 ± 0.21 | 1.15 ± 0.23 | 1.1 ± 0.17 | 1.04 ± 0.17
H3BPE7 and related entries (UniProt P35637) | 0.939 ± 0.046 | 0.966 ± 0.11 | 1.1 ± 0.077 | 1.13 ± 0.12 | 1.22 ± 0.12 | 1.24 ± 0.13 | 1.3 ± 0.12 | 1.4 ± 0.13
J3QTA2 and related entries (UniProt Q99933) | 1.02 ± 0.018 | 0.978 ± 0.032 | 0.97 ± 0.014 | 0.975 ± 0.044 | 0.951 ± 0.054 | 0.947 ± 0.023 | 0.979 ± 0.015 | 0.926 ± 0.052

Complete entries as entered above. Order of values: NP40-soluble protein abundance (concentration: 0.1mM) | NP40-soluble protein abundance (concentration: 0.5mM) | NP40-soluble protein abundance (concentration: 1mM) | NP40-soluble protein abundance (concentration: 2mM) | NP40-soluble protein abundance (concentration: 4mM) | NP40-soluble protein abundance (concentration: 6mM) | NP40-soluble protein abundance (concentration: 8mM) | NP40-soluble protein abundance (concentration: 10mM)
K7ERQ0 and related entries (UniProt Q5BJH7) in the list: 1.05 ± 0.24 | 1.08 ± 0.037 | 1.02 ± 0.15 | 1.03 ± 0.022 | 1.08 ± 0.1 | 0.9931 ± 0.0031 | 0.915 ± 0.025 | 0.968 ± 0.11
H7BXY3 and related entries (UniProt Q7L2E3) in the list: 0.909 ± 0.068 | 0.793 ± 0.053 | 0.83 ± 0.048 | 0.877 ± 0.037 | 0.948 ± 0.059 | 1.02 ± 0.075 | 1.011 ± 0.008 | 1.12 ± 0.048

Source: the supplement of paper PMC6411743
